# Measured values from the supplement of paper PMC8728848.
# This is one part of the list.
# B1: truncCC1G-10077 (Coprinopsis cinerea) (protein)
# chain: MHHHHHHHHPLPSPGPGWVLIQNGGTGKFLCSTPSGDIGTADGPETVYDYSVQWRFIQREYTGVYHVVNRATGAYLRQIGTSMPSIGLAEENDDELKDWWMLETYDNSEIGLASIISRWTGNVLDHYGGVSVQALDNNTENSYRSWAIIPARDWLTSFSLVNGQGGLCLAAQYAREETRLSTTANVNDFHAQWVFRKPSGSSGYTIQNKYNNHYVGGTSARWELVVCCNKYFGIRNTSTQKYLAIEDGQVTFQDQDMTDRKQCWELCSGRATDTSGNDYDLIYMDDDLLEVMIPWVGDKQGDLKHYIEKRATKKPPKDKGGWQLPAAGLIKKPKFNDIRQLLQELIEQWEWDVVNEEREQIQTLVSIDEAEARRLLGRRPHPDIVAAYQRSRSSTLFRIDRQGYFNIAGDRYVNIQGQYGDDSYFHIALPVGVRFGREQIRRFLRDSLDRSTSVTITPTTCKPPSGGPDYNRDPDSDGDNSWIKWTIAVVGTSAIKHSEL
# Experiments:
# Assay in all cases: glycan array binding signal (z-score within array); higher = stronger binding
# Conditions in all cases: glycan notation: IUPAC condensed, linker removed
# [1] = target: Gal(b1-3)GalNAc(b1-3)Gal(a1-4)Gal(b1-4)Glc
# In short: (§1)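 Glycan array data came from 3228 arrays in the Consortium for Functional Glycomics database, and only arrays with an available protein sequence were kept. Glycan names were put into IUPAC-condensed notation, and columns mapping to the same glycan were averaged. The binding signal is a within-array Z-score, averaged across arrays of one protein sequence run at different concentrations or buffers and across linkers. A negative Z-score can be read as non-binding.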
# [2] = target: Gal(b1-3)GalNAc(b1-4)Gal(b1-4)Glc
# In short: as §1
# [3] = target: Gal(b1-3)GalNAc(b1-4)[Neu5Ac(a2-3)]Gal(b1-4)Glc
# In short: as §1
# Gal(b1-3)GlcNAc = target: Gal(b1-3)GlcNAc
# In short: as §1
# [4] = target: Gal(b1-3)GlcNAc(a1-3)Gal(b1-4)GlcNAc
# In short: as §1
# [5] = target: Gal(b1-3)GlcNAc(a1-6)Gal(b1-4)GlcNAc
# In short: as §1
# Gal(b1-3)GlcNAc(b1-2)Man = target: Gal(b1-3)GlcNAc(b1-2)Man
# In short: as §1
# [6] = target: Gal(b1-3)GlcNAc(b1-2)Man(a1-3)[Gal(b1-3)GlcNAc(b1-2)Man(a1-6)]Man(b1-4)GlcNAc(b1-4)GlcNAc
# In short: as §1
# [7] = target: Gal(b1-3)GlcNAc(b1-2)Man(a1-3)[Gal(b1-3)GlcNAc(b1-2)Man(a1-6)]Man(b1-4)GlcNAc(b1-4)[Fuc(a1-6)]GlcNAc
# In short: as §1
# [8] = target: Gal(b1-3)GlcNAc(b1-2)Man(a1-3)[GlcNAc(b1-4)][Gal(b1-3)GlcNAc(b1-2)Man(a1-6)]Man(b1-4)GlcNAc(b1-4)GlcNAc
# In short: as §1
# [9] = target: Gal(b1-3)GlcNAc(b1-2)[Gal(b1-3)GlcNAc(b1-6)]Man(a1-6)[Gal(b1-3)GlcNAc(b1-2)Man(a1-3)]Man(b1-4)GlcNAc(b1-4)GlcNAc
# In short: as §1
# [10] = target: Gal(b1-3)GlcNAc(b1-3)Gal(b1-3)GlcNAc
# In short: as §1
# [11] = target: Gal(b1-3)GlcNAc(b1-3)Gal(b1-4)Glc
# In short: as §1
# [12] = target: Gal(b1-3)GlcNAc(b1-3)Gal(b1-4)GlcNAc
# In short: as §1
# [13] = target: Gal(b1-3)GlcNAc(b1-3)Gal(b1-4)GlcNAc(b1-2)Man(a1-3)[Gal(b1-3)GlcNAc(b1-3)Gal(b1-4)GlcNAc(b1-2)Man(a1-6)]Man(b1-4)GlcNAc(b1-4)GlcNAc
# In short: as §1
# [14] = target: Gal(b1-3)GlcNAc(b1-3)Gal(b1-4)GlcNAc(b1-2)[Gal(b1-3)GlcNAc(b1-3)Gal(b1-4)GlcNAc(b1-6)]Man(a1-6)[Gal(b1-3)GlcNAc(b1-3)Gal(b1-4)GlcNAc(b1-2)Man(a1-3)]Man(b1-4)GlcNAc(b1-4)[Fuc(a1-6)]GlcNAc
# In short: as §1
# [15] = target: Gal(b1-3)GlcNAc(b1-3)Gal(b1-4)GlcNAc(b1-3)Gal(b1-4)GlcNAc(b1-2)[Gal(b1-3)GlcNAc(b1-3)Gal(b1-4)GlcNAc(b1-3)Gal(b1-4)GlcNAc(b1-6)]Man(a1-6)[Gal(b1-3)GlcNAc(b1-3)Gal(b1-4)GlcNAc(b1-3)Gal(b1-4)GlcNAc(b1-2)Man(a1-3)]Man(b1-4)GlcNAc(b1-4)[Fuc(a1-6)]GlcNAc
# In short: as §1
# [16] = target: Gal(b1-3)GlcNAc(b1-3)Gal(b1-4)GlcNAc(b1-6)[Gal(b1-3)GlcNAc(b1-3)]Gal(b1-4)Glc
# In short: as §1
# [17] = target: Gal(b1-3)GlcNAc(b1-3)Gal(b1-4)[Fuc(a1-3)]GlcNAc
# In short: as §1
# [18] = target: Gal(b1-3)GlcNAc(b1-3)Gal(b1-4)[Fuc(a1-3)]GlcNAc(b1-6)[Gal(b1-3)GlcNAc(b1-3)]Gal(b1-4)Glc
# In short: as §1
# [19] = target: Gal(b1-3)GlcNAc(b1-3)GalNAc
# In short: as §1
# [20] = target: Gal(b1-3)GlcNAc(b1-6)Gal(b1-4)GlcNAc
# In short: as §1
# [21] = target: Gal(b1-3)GlcNAc(b1-6)GalNAc
# In short: as §1
# [22] = target: Gal(b1-3)GlcNAc(b1-6)[Gal(b1-3)]GalNAc
# In short: as §1
# Gal(b1-3)GlcNAc6S = target: Gal(b1-3)GlcNAc6S
# In short: as §1
# [23] = target: Gal(b1-3)[Fuc(a1-4)]GlcNAc
# In short: as §1
# [24] = target: Gal(b1-3)[Fuc(a1-4)]GlcNAc(b1-2)Man
# In short: as §1
# [25] = target: Gal(b1-3)[Fuc(a1-4)]GlcNAc(b1-2)Man(a1-3)[Gal(b1-3)[Fuc(a1-4)]GlcNAc(b1-2)Man(a1-6)]Man(b1-4)GlcNAc(b1-4)[Fuc(a1-6)]GlcNAc
# In short: as §1
# [26] = target: Gal(b1-3)[Fuc(a1-4)]GlcNAc(b1-3)Gal(b1-3)[Fuc(a1-4)]GlcNAc
# In short: as §1
# [27] = target: Gal(b1-3)[Fuc(a1-4)]GlcNAc(b1-3)Gal(b1-4)[Fuc(a1-3)]GlcNAc
# In short: as §1
# [28] = target: Gal(b1-3)[Fuc(a1-4)]GlcNAc(b1-6)GalNAc
# In short: as §1
# [29] = target: Gal(b1-3)[GlcNAc(b1-6)]GalNAc
# In short: as §1
# [30] = target: Gal(b1-3)[Neu5Ac(a2-6)]GalNAc
# In short: as §1
# [31] = target: Gal(b1-3)[Neu5Ac(a2-6)]GlcNAc(b1-4)Gal(b1-4)Glc
# In short: as §1
# [32] = target: Gal(b1-3)[Neu5Ac(b2-6)]GalNAc
# In short: as §1
# Gal(b1-4)Gal = target: Gal(b1-4)Gal
# In short: as §1
# [33] = target: Gal(b1-4)GalNAc(a1-3)[Fuc(a1-2)]Gal(b1-4)GlcNAc
# In short: as §1
# [34] = target: Gal(b1-4)GalNAc(b1-3)[Fuc(a1-2)]Gal(b1-4)GlcNAc
# In short: as §1
binder,measurement,setting,value
B1,glycan array binding signal (z-score),[1],0.462
same,glycan array binding signal (z-score),[2],-0.857
same,glycan array binding signal (z-score),[3],-0.719
same,glycan array binding signal (z-score),Gal(b1-3)GlcNAc,-0.268
same,glycan array binding signal (z-score),[4],-1.53
same,glycan array binding signal (z-score),[5],-0.679
same,glycan array binding signal (z-score),Gal(b1-3)GlcNAc(b1-2)Man,-0.446
same,glycan array binding signal (z-score),[6],0.572
same,glycan array binding signal (z-score),[7],0.426
same,glycan array binding signal (z-score),[8],2.75
same,glycan array binding signal (z-score),[9],0.467
same,glycan array binding signal (z-score),[10],-0.851
same,glycan array binding signal (z-score),[11],-0.72
same,glycan array binding signal (z-score),[12],-0.687
same,glycan array binding signal (z-score),[13],-0.039
same,glycan array binding signal (z-score),[14],1.4
same,glycan array binding signal (z-score),[15],1.12
same,glycan array binding signal (z-score),[16],-0.779
same,glycan array binding signal (z-score),[17],0.433
same,glycan array binding signal (z-score),[18],-1.01
same,glycan array binding signal (z-score),[19],-0.146
same,glycan array binding signal (z-score),[20],-1.21
same,glycan array binding signal (z-score),[21],-1.04
same,glycan array binding signal (z-score),[22],0.784
same,glycan array binding signal (z-score),Gal(b1-3)GlcNAc6S,-0.312
same,glycan array binding signal (z-score),[23],-0.584
same,glycan array binding signal (z-score),[24],0.758
same,glycan array binding signal (z-score),[25],0.683
same,glycan array binding signal (z-score),[26],-1.25
same,glycan array binding signal (z-score),[27],0.778
same,glycan array binding signal (z-score),[28],-0.179
same,glycan array binding signal (z-score),[29],-0.568
same,glycan array binding signal (z-score),[30],0.179
same,glycan array binding signal (z-score),[31],-0.296
same,glycan array binding signal (z-score),[32],-1.44
same,glycan array binding signal (z-score),Gal(b1-4)Gal,-0.198
same,glycan array binding signal (z-score),[33],-1.33
same,glycan array binding signal (z-score),[34],-1.05

# Part of the list above, bar-delimited:
binder | measurement | setting | value
B1 | glycan array binding signal (z-score) | [11] | -0.72
same | glycan array binding signal (z-score) | [27] | 0.778
